Source: publication PMC3403905
These are yes or no findings as the source states them, for the method shown. Binding seen in cells or lysates may run through a third protein. Some binding calls cover weakened binding; strength is not graded here.

The chains behind the UniProt entries cited, without tags or fusion partners.
UniProt P51974: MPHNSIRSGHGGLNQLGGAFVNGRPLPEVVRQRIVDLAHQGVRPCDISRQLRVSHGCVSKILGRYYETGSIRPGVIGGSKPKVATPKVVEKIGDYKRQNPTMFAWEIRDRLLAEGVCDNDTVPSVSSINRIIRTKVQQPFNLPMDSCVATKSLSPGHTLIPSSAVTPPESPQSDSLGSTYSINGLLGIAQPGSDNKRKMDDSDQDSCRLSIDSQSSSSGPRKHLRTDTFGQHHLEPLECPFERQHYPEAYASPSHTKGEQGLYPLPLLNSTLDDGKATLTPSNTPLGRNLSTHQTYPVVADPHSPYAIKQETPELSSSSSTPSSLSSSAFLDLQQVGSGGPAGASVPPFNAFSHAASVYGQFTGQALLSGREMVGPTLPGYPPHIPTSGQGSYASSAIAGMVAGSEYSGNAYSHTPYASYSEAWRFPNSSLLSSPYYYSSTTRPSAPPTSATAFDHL
UniProt Q01714: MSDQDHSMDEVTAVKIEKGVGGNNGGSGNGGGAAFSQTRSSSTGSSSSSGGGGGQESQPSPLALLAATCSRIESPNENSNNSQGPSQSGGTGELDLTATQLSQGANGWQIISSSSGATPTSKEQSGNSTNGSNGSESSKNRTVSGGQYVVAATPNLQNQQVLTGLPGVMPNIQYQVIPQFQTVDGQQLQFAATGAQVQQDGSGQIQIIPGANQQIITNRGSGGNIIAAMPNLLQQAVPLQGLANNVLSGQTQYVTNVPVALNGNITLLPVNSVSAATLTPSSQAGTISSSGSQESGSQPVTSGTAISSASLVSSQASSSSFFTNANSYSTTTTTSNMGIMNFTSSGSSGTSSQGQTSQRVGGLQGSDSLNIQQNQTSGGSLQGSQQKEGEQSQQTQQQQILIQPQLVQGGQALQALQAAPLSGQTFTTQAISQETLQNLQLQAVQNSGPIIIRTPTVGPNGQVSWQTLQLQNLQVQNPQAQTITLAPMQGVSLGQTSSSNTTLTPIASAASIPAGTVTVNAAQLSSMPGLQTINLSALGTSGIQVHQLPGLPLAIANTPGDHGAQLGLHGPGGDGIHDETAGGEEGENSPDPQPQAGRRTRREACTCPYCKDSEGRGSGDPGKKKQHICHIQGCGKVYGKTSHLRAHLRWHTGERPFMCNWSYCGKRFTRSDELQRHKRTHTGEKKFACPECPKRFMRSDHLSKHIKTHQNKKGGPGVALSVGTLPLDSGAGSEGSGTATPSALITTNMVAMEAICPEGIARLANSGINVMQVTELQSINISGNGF

B1: full-length human CTCF (protein, UniProt P49711 1-727)
chain: MEGDAVEAIVEESETFIKGKERKTYQRRREGGQEEDACHLPQNQTDGGEVVQDVNSSVQMVMMEQLDPTLLQMKTEVMEGTVAPEAEAAVDDTQIITLQVVNMEEQPINIGELQLVQVPVPVTVPVATTSVEELQGAYENEVSKEGLAESEPMICHTLPLPEGFQVVKVGANGEVETLEQGELPPQEDPSWQKDPDYQPPAKKTKKTKKSKLRYTEEGKDVDVSVYDFEEEQQEGLLSEVNAEKVVGNMKPPKPTKIKKKGVKKTFQCELCSYTCPRRSNLDRHMKSHTDERPHKCHLCGRAFRTVTLLRNHLNTHTGTRPHKCPDCDMAFVTSGELVRHRRYKHTHEKPFKCSMCDYASVEVSKLKRHIRSHTGERPFQCSLCSYASRDTYKLKRHMRTHSGEKPYECYICHARFTQSGTMKMHILQKHTENVAKFHCPHCDTVIARKSDLGVHLRKQHSYIEQGKKCRYCDAVFHERYALIQHQKSHKNEKRFKCDQCDYACRQERHMIMHKRTHTGEKPYACSHCDKTFRQKQLLDMHFKRYHDPNFVPAAFVCSKCGKTFTRRNTMARHADNCAGPDGVEGENGGETKKSKRGRKRKMRSKKEDSSDSENAEPDLDDNEDEEEPAVEIEPEPEPQPVTPAPPPAKKRRGRPPGRTNQPKQNQPTAIIQVEDQNTGAIENIIVEVKKEPDAEPAEGEEEEAQPAATDAPNGDLTPEMILSMMDR

Target: Pax8 (rat (endogenous in PCCl3)) (UniProt P51974)
Assay: co-IP; nuclear extracts (200 ug) of control or hCTCF-transfected PCCl3 cells; polyclonal antibodies (anti-Pax8, anti-Sp1 or anti-CTCF) on Dynabeads; IP buffer 20 mM HEPES pH 8, 10 mM KCl, 0.15 mM EGTA, 0.15 mM EDTA, 150 mM NaCl, 0.1% NP-40; immunoblot for Sp1, CTCF or Pax8; nonspecific IgG as control

Molecule	binding
Sp1 (from UniProt Q01714 1-786)	binds
B1	binds
